Record: PubChem BioAssay AID743121 (NCATS, 2013)

Screen: 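Genes whose silencing strengthens cell killing by camptothecin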 (primary screen)
Cell system: MDA-MB-231 cells, a human breast cancer line
Reagent: single siRNA against human genes, 20 nM siRNA (0.8 pmol per well)
Duration: 120 h (drug added 48 h after transfection, read 72 h later)
Challenge: camptothecin 20 nM (about EC30) for 72 h; vehicle 0.1% DMSO in parallel plates
Measurement: 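Cell viability by ATP luminescence (CellTiter-Glo) as % of non-targeting siRNA wells, and the log2 ratio of viability without drug over viability with camptothecin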
Scale: log2 vehicle/camptothecin viability: higher = stronger sensitisation to camptothecin; viability with camptothecin: higher = more viable cells
Rule for the call: 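Each gene scored by redundant siRNA activity (RSA) over its individual siRNA ratios; a gene is called active at p < 0.001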
The whole screen tested about 26,000 reagents; below is a part drawn at random. 167 of them (0.63%) were called active. 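Calls are per gene from RSA p-values that are not deposited; an individual active-marked siRNA can sensitise only weakly.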 Not all columns of the deposit are shown. No sequences are given here.

How did the screen score ATP4A [SID164354623]?
log2 vehicle/camptothecin viability: -0.388; viability with camptothecin (% of control): 68.3; Call: inactive

For ATP4A [SID164354624], what does the deposit list?
log2 vehicle/camptothecin viability: -0.908; viability with camptothecin (% of control): 71.6; Call: inactive

What is on record for ATP4A [SID164354627]?
log2 vehicle/camptothecin viability: -0.482; viability with camptothecin (% of control): 94.7; Call: inactive

How did the screen score ANPEP [SID164353390]?
log2 vehicle/camptothecin viability: -0.473; viability with camptothecin (% of control): 29.7; Call: inactive

For ANPEP [SID164353391], what was measured?
log2 vehicle/camptothecin viability: -0.837; viability with camptothecin (% of control): 78.8; Call: inactive

With ANPEP [SID164353392], what does the deposit list?
log2 vehicle/camptothecin viability: -0.317; viability with camptothecin (% of control): 86.3; Call: inactive

Which result is listed for LAMA1 [SID164615673]?
log2 vehicle/camptothecin viability: 0.127; viability with camptothecin (% of control): 84.2; Call: inactive

With LAMA1 [SID164615677], what was measured?
log2 vehicle/camptothecin viability: -0.108; viability with camptothecin (% of control): 98.5; Call: inactive

With LAMA1 [SID164615678], what was measured?
log2 vehicle/camptothecin viability: -0.257; viability with camptothecin (% of control): 105; Call: inactive

Which result is listed for LAMA1 [SID164615679]?
log2 vehicle/camptothecin viability: 0.381; viability with camptothecin (% of control): 76.3; Call: inactive

For GP5 [SID164367153], what does the deposit list?
log2 vehicle/camptothecin viability: -0.26; viability with camptothecin (% of control): 88.1; Call: inactive

How did the screen score GP5 [SID164367156]?
log2 vehicle/camptothecin viability: 0.154; viability with camptothecin (% of control): 81.3; Call: inactive

Which result is listed for GP5 [SID164367157]?
log2 vehicle/camptothecin viability: 0.573; viability with camptothecin (% of control): 57.6; Call: inactive

What did the screen give for GP5 [SID164367159]?
log2 vehicle/camptothecin viability: -0.455; viability with camptothecin (% of control): 52.4; Call: inactive

2 entries already listed, arranged by “log2 vehicle/camptothecin viability”, highest first.
GP5 [SID164367157] | log2 vehicle/camptothecin viability: 0.573; viability with camptothecin (% of control): 57.6; Call: inactive
GP5 [SID164367156] | log2 vehicle/camptothecin viability: 0.154; viability with camptothecin (% of control): 81.3; Call: inactive
